No constants are given. Whether binding was seen depends on the method and setting. Some binding calls cover weakened binding; strength is not graded here.
Target: chicken GRIFIN (chicken)
Assay: crystal structure; cGRIFIN with the histo-blood-group B tetrasaccharide (1:2 molar ratio), crystals grown in 15% w/v PEG 400, 100 mM MES pH 6.5, 295 K; both purified

Sequences of proteins named here, by UniProt entry; tags and fusion partners are left off. A change or cut given only in a name is not applied to a line headed by its entry. A line that says so, or that is headed by a name, gives the form on record, which may keep a tag or linker.
chicken GRIFIN (A0A8V0ZCX7, form named): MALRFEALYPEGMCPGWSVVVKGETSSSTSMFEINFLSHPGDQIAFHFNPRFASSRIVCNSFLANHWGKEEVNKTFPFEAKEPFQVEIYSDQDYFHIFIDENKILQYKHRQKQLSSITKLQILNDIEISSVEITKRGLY

“chicken GRIFIN (from UniProt A0A8V0ZCX7 1-139)” was tested, and the binding was “binds”.
